PubChem BioAssay AID248 (DTP/NCI, 2004)
The list is a part of this screen's results and no random one: it is rich in T/C values a quarter to a half above the control, in often repeated tests (any T/C) and in doses without a T/C. Further doses and runs are listed elsewhere. T/C: endpoint of the treated group in % of that of the vehicle group. Some doses have a count of surviving animals in place of a T/C: the source files T/C as zero there, which appears to mark a toxic dose or a test without result, not a measured value. Some survivor counts are full or nearly so, which does not show that the dose was tolerated: survival well below the control is almost never listed, so the zero probably covers shortened survival too. Survivors were counted at the toxicity check, usually on the fifth day, unless a day is given; later deaths do not show. Schedule codes are those of the source, taken here to give the interval after Q, in days (D) or hours (H), and the number of doses after X. Some schedule codes hold Z or #, which are not explained here. Where survival is the endpoint, this PubChem deposit counts one and a half times the control or more as active, and values a quarter to a half above the control carry no call in these data; other NCI protocols may use other cut-offs.

Tested on: L1210 leukemia ip in BDF1 mice, survival T/C
Experiment: NCI In Vivo Anticancer Drug Screen. Data for tumor model L1210 Leukemia (intraperitoneal) in B6D2F1 (BDF1) mice
Details: T/C endpoint: mean survival time, higher T/C = longer survival
[1] = dose: 100.0 mg/kg/injection, schedule: Q04DX003 (ip), vehicle: saline with Tween-80
[2] = dose: 200.0 mg/kg/injection, schedule: Q04DX003 (ip), vehicle: saline with Tween-80
[3] = dose: 400.0 mg/kg/injection, schedule: Q04DX003 (ip), vehicle: saline with Tween-80
[4] = dose: 200.0 mg/kg/injection, schedule: Q01DX001 (ip), vehicle: saline with Tween-80
[5] = dose: 200.0 mg/kg/injection, schedule: Q04DX002 (ip), vehicle: Klucel (hydroxypropylcellulose) (HPC)
[6] = dose: 400.0 mg/kg/injection, schedule: Q04DX002 (ip), vehicle: Klucel (hydroxypropylcellulose) (HPC)
[7] = dose: 400.0 mg/kg/injection, schedule: Q04DX003 (ip), vehicle: saline
[8] = dose: 200.0 mg/kg/injection, schedule: Q01DX001 (ip), vehicle: saline
[9] = dose: 400.0 mg/kg/injection, schedule: Q01DX001 (ip), vehicle: saline

Q: CCC1(O)CC2CN(CCc3c([nH]c4ccccc34)C(C(=O)OC)(c3cc4c(cc3OC)N(C)C3C(O)(C(N)=O)C(O)C5(CC)C=CCN6CCC43C65)C2)C1 (centres undefined) (tested in a mixture with another compound) was tested. Which T/C (dose: 0.16 mg/kg/injection, schedule: Q01DX009 (ip), vehicle: saline) did it give?
A: 136 % of control

Q: What about the T/C (dose: 0.26 mg/kg/injection, schedule: Q01DX009 (ip), vehicle: saline) of the same molecule?
A: 138 % of control

Q: And the T/C (dose: 0.39 mg/kg/injection, schedule: Q04DX003 (ip), vehicle: saline)?
A: 128 % of control

Q: And the T/C (dose: 0.65 mg/kg/injection, schedule: Q04DX003 (ip), vehicle: saline)?
A: 140 % of control

Q: And the survivor count (dose: 0.72 mg/kg/injection, schedule: Q01DX009 (ip), vehicle: saline)?
A: 2 of 8

Q: And the T/C (dose: 1.08 mg/kg/injection, schedule: Q04DX003 (ip), vehicle: saline)?
A: 130 % of control

Q: And the T/C (dose: 1.8 mg/kg/injection, schedule: Q04DX003 (ip), vehicle: saline)?
A: 134 % of control

Q: What about the T/C (dose: 3.0 mg/kg/injection, schedule: Q04DX003 (ip), vehicle: saline) of the same molecule?
A: 129 % of control

Q: What about the T/C (dose: 389.0 micrograms/kg/injection, schedule: Q04DX003 (ip), vehicle: saline) of the same molecule?
A: 129 % of control

Q: What about the T/C (dose: 1080.0 micrograms/kg/injection, schedule: Q04DX003 (ip), vehicle: saline) of the same molecule?
A: 149 % of control

Q: And the T/C (dose: 1800.0 micrograms/kg/injection, schedule: Q04DX003 (ip), vehicle: saline)?
A: 149 % of control

Q: What about the T/C (dose: 3000.0 micrograms/kg/injection, schedule: Q04DX003 (ip), vehicle: saline) of the same molecule?
A: 126 % of control

Q: How did the survivor count [1] turn out when N#CC1(C#N)C2C=CC(C3CCC=C32)C1(C#N)C#N (centres undefined) was run?
A: 5 of 6

Q: What about the survivor count [2] of the same molecule?
A: 6 of 6

Q: And the survivor count [3]?
A: 0 of 6

Q: What does the source list for NC(=S)N/N=C\c1ccccn1?
A: T/C (dose: 5.3 mg/kg/injection, schedule: Q01DX009 (ip), vehicle: saline with Tween-80): 138 % of control; T/C (dose: 12.5 mg/kg/injection, schedule: Q01DX009 (ip), vehicle: saline with Tween-80): 136 % of control; survivor count (dose: 25.0 mg/kg/injection, schedule: Q01DX009 (ip), vehicle: saline with Tween-80): 4 of 6

Q: For C=C(C#N)C(F)(F)F, which survivor count (dose: 100.0 mg/kg/injection, schedule: Q01DX001 (ip), vehicle: saline with Tween-80) is on record?
A: 0 of 6

Q: What about the survivor count [4] of the same molecule?
A: 0 of 6

Q: And the survivor count (dose: 400.0 mg/kg/injection, schedule: Q01DX001 (ip), vehicle: saline with Tween-80)?
A: 0 of 6

Q: Which survivor count (dose: 40.0 mg/kg/injection, schedule: Q01DX001 (ip), vehicle: saline) does the source give for O=C1CCC2CCC(CC2)O1 here?
A: 2 of 4

Q: What about the survivor count (dose: 80.0 mg/kg/injection, schedule: Q01DX001 (ip), vehicle: saline) of the same molecule?
A: 0 of 4

Q: C=CS(=O)(=O)c1ccc(C)cc1 was tested. Which survivor count [5] did it give?
A: 0 of 3

Q: And the survivor count [6]?
A: 0 of 3

Q: For CC(OC(=O)CF)C(C)OC(=O)CF (centres undefined), which survivor count (dose: 5.0 mg/kg/injection, schedule: Q01DX001 (ip), vehicle: carboxymethylcellulose (CMC)) is on record?
A: 0 of 4

Q: And the survivor count (dose: 10.0 mg/kg/injection, schedule: Q01DX001 (ip), vehicle: carboxymethylcellulose (CMC))?
A: 1 of 4

Q: And the survivor count (dose: 20.0 mg/kg/injection, schedule: Q01DX001 (ip), vehicle: carboxymethylcellulose (CMC))?
A: 0 of 4

Q: What about the survivor count (dose: 40.0 mg/kg/injection, schedule: Q01DX001 (ip), vehicle: carboxymethylcellulose (CMC)) of the same molecule?
A: 0 of 4

Q: And the survivor count (dose: 50.0 mg/kg/injection, schedule: Q01DX001 (sc), vehicle: carboxymethylcellulose (CMC))?
A: 0 of 4

Q: What about the survivor count (dose: 80.0 mg/kg/injection, schedule: Q01DX001 (ip), vehicle: carboxymethylcellulose (CMC)) of the same molecule?
A: 0 of 4

Q: And the survivor count (dose: 100.0 mg/kg/injection, schedule: Q01DX001 (sc), vehicle: carboxymethylcellulose (CMC))?
A: 0 of 4

Q: And the survivor count (dose: 200.0 mg/kg/injection, schedule: Q01DX001 (sc), vehicle: carboxymethylcellulose (CMC))?
A: 0 of 4

Q: What about the survivor count (dose: 400.0 mg/kg/injection, schedule: Q01DX001 (sc), vehicle: carboxymethylcellulose (CMC)) of the same molecule?
A: 0 of 4

Q: For O=C(O)C(Oc1ccccc1O)C(=O)O, which survivor count [7] is on record?
A: 0 of 6

Q: With Cc1ccc(C(=O)O)cc1S(=O)(=O)Cl as the molecule, how does the survivor count (dose: 400.0 mg/kg/injection, schedule: Q01DX009 (ip), vehicle: saline with Tween-80) read?
A: 1 of 6

Q: Which results are given for N#CC(C#N)=Cc1ccc(C=C(C#N)C#N)cc1?
A: survivor count (dose: 200.0 mg/kg/injection, schedule: Q01DX009 (ip), vehicle: Klucel (hydroxypropylcellulose) (HPC)): 5 of 6; survivor count (dose: 400.0 mg/kg/injection, schedule: Q01DX009 (ip), vehicle: Klucel (hydroxypropylcellulose) (HPC)): 5 of 6

Q: O=C(Nc1ccc(C2=NCCN2)cc1)c1ccc(N=Nc2ccc(C(=O)Nc3ccc(C4=NCCN4)cc3)cc2)cc1 was tested. Which survivor count (dose: 500.0 mg/kg/injection, schedule: Q01DX Z (ip), vehicle: water) did it give?
A: 3 of 6

Q: With COc1c(O)ccc2c1-c1c3c(cc4c1C(C2)NCC4)OCO3 (centres undefined) as the molecule, how does the survivor count [8] read?
A: 0 of 6

Q: And the survivor count [9]?
A: 1 of 6

Q: Which survivor count [7] does the source give for O=C1/C(=C/c2ccco2)CC2CCCCC12 (centres undefined) here?
A: 0 of 6

Q: For CNC(=O)C(C)C1C(=O)/C(=C(O)/C=C/C(C)=C\C(C)C2OC3(C)OC(C=CC34CO4)C2C)C(=O)N1C1CCC(O)C(C)O1 (centres undefined), which survivor count (dose: 400.0 mg/kg/injection, schedule: Q01DX009 (ip), vehicle: saline) is on record?
A: 6 of 6

Q: How did the survivor count (dose: 20.0 mg/kg/injection, schedule: Q04DX003 (ip), vehicle: Klucel (hydroxypropylcellulose) (HPC)) turn out when O=[N+]([O-])c1sc2ccccc2c1Br was run?
A: 3 of 6

Q: And the survivor count (dose: 40.0 mg/kg/injection, schedule: Q04DX003 (ip), vehicle: Klucel (hydroxypropylcellulose) (HPC))?
A: 1 of 6

Q: And the survivor count (dose: 80.0 mg/kg/injection, schedule: Q04DX003 (ip), vehicle: Klucel (hydroxypropylcellulose) (HPC))?
A: 0 of 6

Q: For Nc1ncnc(N)c1NC(=O)c1cc(Cl)cc(Cl)c1, which survivor count (dose: 200.0 mg/kg/injection, schedule: Q04DX003 (ip), vehicle: Klucel (hydroxypropylcellulose) (HPC)) is on record?
A: 6 of 6

Q: How did the survivor count (dose: 100.0 mg/kg/injection, schedule: Q04DX002 (ip), vehicle: Klucel (hydroxypropylcellulose) (HPC)) turn out when Cc1cc(C)c(CS)c(C)c1 was run?
A: 3 of 3

Q: With O=C(O)C1(Cl)CC2C=CC1C2 (centres undefined) as the molecule, how does the survivor count (dose: 400.0 mg/kg/injection, schedule: Q04DX003 (ip), vehicle: gum acacia) read?
A: 3 of 6

Q: And the survivor count [3]?
A: 5 of 6

Q: Which survivor count [1] does the source give for O=C(Nc1ccccc1-c1ccc([N+](=O)[O-])cc1)c1cccc2ccccc12 here?
A: 6 of 6

Q: Which T/C [5] does the source give for CC(C)(C)OC1C2C=CC1C1C2C2(Cl)C(Cl)=C(Cl)C1(Cl)C21OCCO1 (centres undefined) here?
A: 133 % of control

Q: What does the source list for CC1(C)N=C(N)N=C(N)N1c1cccc(OCc2cccc(N)c2)c1?
A: survivor count (dose: 100.0 mg/kg/injection, schedule: Q01DX001 (ip), vehicle: saline): 1 of 4; survivor count [8]: 0 of 4; survivor count [9]: 0 of 4

Q: Which survivor count (dose: 200.0 mg/kg/injection, schedule: Q01DX001 (ip), vehicle: carboxymethylcellulose (CMC)) does the source give for Cc1cc(OC(C)C(=O)O)c(Cl)cc1Cl (centres undefined) here?
A: 3 of 6

Q: And the survivor count (dose: 400.0 mg/kg/injection, schedule: Q01DX001 (ip), vehicle: carboxymethylcellulose (CMC))?
A: 3 of 6

Q: For O=[N+]([O-])c1cc(Br)cc(Br)c1O, which survivor count [5] is on record?
A: 1 of 3

Q: And the survivor count [6]?
A: 0 of 3

Q: Cc1ccc(C)c(NC(=O)Oc2ccc(Cl)cc2C)c1 was tested. Which survivor count (dose: 100.0 mg/kg/injection, schedule: Q01DX009 (ip), vehicle: saline with Tween-80) did it give?
A: 3 of 3

Q: What about the survivor count [1] of the same molecule?
A: 6 of 6

Q: And the survivor count [4]?
A: 6 of 6

Q: What about the survivor count [2] of the same molecule?
A: 6 of 6

Q: And the survivor count [3]?
A: 6 of 6
